Laboratory results taken from PubChem BioAssay AID485314 (National Center for Advancing Translational Sciences (NCATS), 2010).
Among all 340,000 compounds or so, about 4,500 (1.3%) were called active. The shares of active, inactive and inconclusive entries below differ from those in the screen. The call rests on the fitted dose curve; in most records, active means well fitted inhibition curve with a large enough effect; inconclusive means small, poorly fitted or top-dose-only effect, or another doubt; inactive means no such curve, though single readings can be large or run the other way. Potencies beside an inconclusive call are fits to weak or partial responses and may not hold up.

Molecular target: DNA polymerase beta (Homo sapiens) (UniProt P06746)
Assay: qHTS Assay for Inhibitors of DNA Polymerase Beta
Conditions: Pol beta primer extension/strand displacement, fluorescence kinetic; activity change, negative = inhibition: at 114 µM (top of the series)
Procedure, shortened: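 Homogeneous kinetic assay of primer extension and strand displacement by 10 nM Pol beta, preincubated 15 min at room temperature with compound before 50 nM substrate (final) was added. Read at 0 and 10 min; four-parameter Hill fit.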
On the % scale 0 is the no-effect control and ±100 the full control effect; potency means the concentration at half of the fitted maximal effect.

**Q.** `O=C(Nc1nc(-c2ccccc2)cs1)c1ccc(Br)o1` was tested. Which Potency did it give?
**A.** The Potency was inconclusive: 22.4 µM [inhibitor, partial curve, poor fit].

**Q.** With `CCn1c(SCC(=O)N/N=C/C=C/c2ccco2)nnc1-c1ccc(OC)cc1` as the compound, how does the Potency read?
**A.** Its Potency is active: 25.1 µM.

**Q.** For `CN(C)C(CNc1ncnc2sc3c(c12)CCCC3)c1ccco1` (centres undefined), which Potency is on record?
**A.** The Potency was inconclusive: 0.891 µM [inhibitor, full curve, poor fit].

**Q.** With `Clc1ccc(-c2ccc(CNCC3CCCO3)o2)cc1` (centres undefined) as the compound, how does the Potency read?
**A.** The Potency was inconclusive: 89.1 µM [inhibitor, single point].

**Q.** With `CSc1cccc(NC(=S)NCCCN2CCN(c3ccc(F)cc3)CC2)c1` as the compound, how does the Potency read?
**A.** Its Potency is inconclusive: 79.4 µM [inhibitor, single point].

**Q.** `Cc1ccccc1Cn1ccc(NC(=O)c2cc3ncc(Br)cn3n2)n1` was tested. Which Potency did it give?
**A.** The Potency was active: 20 µM.

**Q.** Which Potency does the source give for `CC(C)=CCC/C(C)=C/C=N/NC(=O)c1cccc([N+](=O)[O-])c1` here?
**A.** Its Potency is inconclusive: 79.4 µM [inhibitor, partial curve, poor fit].

**Q.** How did the “activity change, negative = inhibition” value turn out when `COc1ccc(S(=O)(=O)c2cn(C)c3cc(N4CCCCC4)c(F)cc3c2=O)cc1` was run?
**A.** The value was inactive: -1.37%.

**Q.** `Cc1c(-c2nsc(NC(=O)c3ccc(Cl)cc3)n2)nnn1-c1ccc(C(C)C)cc1` was tested. Which Potency did it give?
**A.** Its Potency is inconclusive: 79.4 µM [inhibitor, single point].

**Q.** `Cc1ccc(C(=O)NCCN2CCOCC2)cc1C` was tested. Which Potency did it give?
**A.** The Potency was inconclusive: 39.8 µM [inhibitor, single point].

**Q.** For `C/C(=N\NC(=O)c1cc2ccccc2cc1O)c1cc2ccccc2o1`, which Potency is on record?
**A.** The Potency was active: 7.08 µM.

**Q.** `Cc1ccc2c(c1)sc1nc(=O)n(-c3ccc(Cl)cc3)c(=O)n12` was tested. Which Potency did it give?
**A.** Its Potency is inconclusive: 2.51 µM [inhibitor, partial curve].

**Q.** Which Potency does the source give for `O=C1C(Cl)=C(N2CCCCCC2)C(=O)N1c1ccc(Cl)cc1` here?
**A.** The Potency was inconclusive: 3.98 µM [inhibitor, single point].

**Q.** For `O=C(c1csc2c1CCCC2)N1CCN(c2ccc(F)cc2)CC1`, which Potency is on record?
**A.** The Potency was inconclusive: 100 µM [inhibitor, single point].

**Q.** How did the Potency turn out when `COc1ccc(NC(=O)C(=O)NNC(=O)COc2ccc(Cl)cc2)c(OC)c1` was run?
**A.** The Potency was inconclusive: 10 µM [inhibitor, full curve].

**Q.** For `COc1ccc2c(c1)-c1nc(NC(=O)c3ccco3)sc1CC2`, which Potency is on record?
**A.** Its Potency is inconclusive: 100 µM [inhibitor, single point].

**Q.** For `CCCCc1nc2sc3c(SCC(=O)NCc4ccco4)ncnc3c2c2c1CCC2`, which Potency is on record?
**A.** The Potency was inconclusive: 17.8 µM [inhibitor, partial curve].

**Q.** For `Cc1ccc(S(=O)(=O)n2cnc3ccccc32)cc1`, which Potency is on record?
**A.** Its Potency is inconclusive: 1 µM [inhibitor, full curve, poor fit].

**Q.** How did the Potency turn out when `Cc1nccc2oc(=O)c(NC(=O)c3ccc(Cl)cc3)cc12` was run?
**A.** Its Potency is inconclusive: 0.282 µM [inhibitor, full curve, poor fit].

**Q.** `COc1ccccc1NC(=O)c1c(NCc2sccc2C)sc2c1CCCCC2` was tested. Which “activity change, negative = inhibition” value did it give?
**A.** The value was inactive: -15.1%.

**Q.** Which Potency does the source give for `CCOc1ccc(N(CC(=O)NCc2ccco2)S(=O)(=O)c2ccc(OC)c(OC)c2)cc1` here?
**A.** Its Potency is inconclusive: 22.4 µM [inhibitor, full curve].

**Q.** For `C#CCOCCOCCOCCNc1nc(N2CCN(C(=O)[C@H](CCC(=O)O)n3cc(C(N)CO)nn3)CC2)nc(N2CCN(C(=O)[C@H](CCC(=O)O)n3cc(C(N)CO)nn3)CC2)n1` (some centres undefined), which Potency is on record?
**A.** Its Potency is inconclusive: 89.1 µM [inhibitor, single point].

**Q.** Which Potency does the source give for `COc1ccc2c(=O)c(-c3cnn(-c4ccccc4)c3)c(C)oc2c1` here?
**A.** Its Potency is inconclusive: 35.5 µM [inhibitor, single point].

**Q.** How did the Potency turn out when `CCS(=O)(=O)c1ccc2c(c1)N(S(=O)(=O)c1ccc(OC)cc1)CC(C(=O)O)O2` (centres undefined) was run?
**A.** The Potency was inconclusive: 8.91 µM [inhibitor, full curve, poor fit].

**Q.** For `O=C(NC1CCN(C(=O)N2c3ccccc3Sc3ccccc32)CC1)c1ccccc1F`, which Potency is on record?
**A.** The Potency was inconclusive: 112 µM [inhibitor, partial curve, poor fit].

**Q.** With `CC1CCCC(n2c(=S)[nH]c3ccccc3c2=O)C1C` (centres undefined) as the compound, how does the “activity change, negative = inhibition” value read?
**A.** The value was inactive: -22.3%.

**Q.** For `O=C(Nc1ccc2oc(-c3cccc4ccccc34)nc2c1)c1ncn[nH]1`, which Potency is on record?
**A.** Its Potency is inconclusive: 17.8 µM [inhibitor, full curve, poor fit].

**Q.** For `Cc1ccc(NC(=O)Nc2nnc(N(C)Cc3ccccc3)s2)cc1`, which Potency is on record?
**A.** The Potency was inconclusive: 2.24 µM [inhibitor, partial curve, poor fit].

**Q.** How did the Potency turn out when `Fc1ccc(CNCCC(Cc2ccccc2)c2ccco2)cc1` (centres undefined) was run?
**A.** The Potency was inconclusive: 79.4 µM [inhibitor, single point].

**Q.** For `CCOc1cc(-c2nc(-c3ccc(-c4ccc(C)cc4)nc3OC)no2)cc(OCC)c1OCC`, which Potency is on record?
**A.** Its Potency is inconclusive: 12.6 µM [inhibitor, partial curve, poor fit].

**Q.** For `Cc1ccc(Cl)cc1N1CCN(C(=O)C2CCN(S(C)(=O)=O)CC2)CC1`, which Potency is on record?
**A.** Its Potency is inconclusive: 89.1 µM [inhibitor, single point].

**Q.** Which Potency does the source give for `COc1ccc(-c2ccc3c(N)c(C(=O)NC(C)C)sc3n2)cc1OC` here?
**A.** The Potency was inconclusive: 44.7 µM [inhibitor, single point].

**Q.** Which Potency does the source give for `O=C(CSC1=Nc2ccccc2C2=NC(CC(=O)NCc3ccco3)C(=O)N12)NCc1ccco1` (centres undefined) here?
**A.** The Potency was active: 39.8 µM.

**Q.** How did the Potency turn out when `Cc1ccc(N=Cc2c(O)n(-c3nccs3)c(=O)c3ccccc23)cc1` was run?
**A.** The Potency was inconclusive: 28.2 µM [inhibitor, single point].

**Q.** `Cc1ccc(S(=O)(=O)N2CCCCC2)cc1C(=O)NCCCN1CCOCC1` was tested. Which “activity change, negative = inhibition” value did it give?
**A.** The value was inactive: 92.3%.

**Q.** With `CCOC(=O)c1cnc2sc3c(n2c1=O)CCCC3` as the compound, how does the Potency read?
**A.** The Potency was inconclusive: 5.62 µM [inhibitor, partial curve].

**Q.** `Cc1ccc(Cl)cc1N1CCN(C(=O)CSc2nnc3n2C(C)(C)Cc2ccccc2-3)CC1` was tested. Which Potency did it give?
**A.** The Potency was inconclusive: 0.141 µM [inhibitor, full curve, poor fit].

**Q.** With `O=C(Nc1cccc(Cl)c1)c1c(NC(=O)C(F)(F)F)sc2c1CCCC2` as the compound, how does the activity change, negative = inhibition read?
**A.** The activity change, negative = inhibition was inconclusive: -84.7% [inhibitor].

**Q.** `O=C(NC1CCNCC1)C1CC1` was tested. Which Potency did it give?
**A.** Its Potency is inconclusive: 1.78 µM [inhibitor, full curve, poor fit].

**Q.** For `COc1cccc(NC(=O)Nc2cc(-c3cn4cccnc4n3)ccc2C)c1`, which Potency is on record?
**A.** The Potency was active: 7.94 µM.

**Q.** `Cc1cc(CO)nn1-c1ccc([N+](=O)[O-])cc1` was tested. Which Potency did it give?
**A.** The Potency was inconclusive: 89.1 µM [inhibitor, single point].

**Q.** For `C/C(=N\Nc1nc(N2CCCCC2)nc(N2CCOCC2)n1)c1ccccc1O`, which Potency is on record?
**A.** The Potency was inconclusive: 89.1 µM [inhibitor, single point].

**Q.** For `CCn1c(SCC(=O)NCc2ccco2)nnc1-c1cccs1`, which Potency is on record?
**A.** The Potency was active: 31.6 µM.

**Q.** For `COc1ccccc1CCNC(=O)CCc1c(C)c2cc3c(C)coc3c(C)c2oc1=O`, which Potency is on record?
**A.** Its Potency is inconclusive: 35.5 µM [inhibitor, partial curve, poor fit].

**Q.** How did the Potency turn out when `C#Cc1ccc(C(=O)Nc2cc(C(N)=O)ccc2N2CCOCC2)cc1` was run?
**A.** Its Potency is inconclusive: 39.8 µM [inhibitor, full curve].

**Q.** For `COc1ccccc1-c1noc(-c2ccc(N3CCN(c4ccccc4)CC3)c([N+](=O)[O-])c2)n1`, which Potency is on record?
**A.** Its Potency is inconclusive: 89.1 µM [inhibitor, single point].

**Q.** For `CCCCn1c(C)cc2c(c1=O)C1O[C@](c3ccsc3)(Cc3ccccc31)O2`, which Potency is on record?
**A.** The Potency was active: 2.24 µM.

**Q.** For `CCOC(=O)c1c(NC(=O)CSC2=NN3CCCC(=O)N=C3S2)sc2c1CCCCC2`, which Potency is on record?
**A.** Its Potency is inconclusive: 89.1 µM [inhibitor, single point].

**Q.** With `CCCCN1Cc2c(nc3cc(-c4ccco4)[nH]n3c2=O)C1=O` as the compound, how does the Potency read?
**A.** The Potency was active: 25.1 µM.

**Q.** Which “activity change, negative = inhibition” value does the source give for `COC(=O)c1c(C)nc2ccccc2c1C(=O)O` here?
**A.** The value was inactive: 22.8%.

**Q.** Which Potency does the source give for `O=C(Nc1cc(Cl)ccn1)C1CCN(S(=O)(=O)c2cccs2)CC1` here?
**A.** Its Potency is inconclusive: 0.501 µM [inhibitor, full curve, poor fit].

**Q.** With `CC1CC(C)CN(CCCSc2ccccc2)C1` (centres undefined) as the compound, how does the Potency read?
**A.** Its Potency is inconclusive: 89.1 µM [inhibitor, single point].

**Q.** With `CC(C)c1ccc(/C=N/n2c(COc3ccccc3)n[nH]c2=S)cc1` as the compound, how does the Potency read?
**A.** Its Potency is inconclusive: 12.6 µM [inhibitor, partial curve].

**Q.** With `Cc1cc(OC(C)C(=O)N(Cc2ccco2)C2CCS(=O)(=O)C2)cc(C)c1Cl` (centres undefined) as the compound, how does the Potency read?
**A.** Its Potency is inconclusive: 89.1 µM [inhibitor, single point].

**Q.** For `Cc1ccc(S(=O)(=O)c2cn(C)c3cc(N4CCN(C)CC4)c(F)cc3c2=O)cc1`, which activity change, negative = inhibition is on record?
**A.** Its activity change, negative = inhibition is inconclusive: -33% [inhibitor].

**Q.** For `CC1CC(C)CN(c2ccc(S(=O)(=O)N3CCOCC3)cc2)C1` (centres undefined), which Potency is on record?
**A.** The Potency was inconclusive: 0.501 µM [inhibitor, full curve].

**Q.** Which Potency does the source give for `CCn1c(=O)c(C(=O)CN2CCc3ccccc32)c(N)n(Cc2ccccc2)c1=O` here?
**A.** Its Potency is inconclusive: 79.4 µM [inhibitor, partial curve].

**Q.** How did the Potency turn out when `O=C(NCCN1CCCCC1)Nc1ccccc1` was run?
**A.** Its Potency is inconclusive: 89.1 µM [inhibitor, single point].

**Q.** How did the “activity change, negative = inhibition” value turn out when `Cc1ccc(C)c(N2CCN(c3nc4ccccc4c4nc(CCn5nc(C)cc5C)nn34)CC2)c1` was run?
**A.** The value was inactive: 20.9%.

**Q.** `Cc1cc(C)c(N2CCN(S(=O)(=O)N3CCCCCC3)CC2)c(C)c1` was tested. Which Potency did it give?
**A.** The Potency was inconclusive: 89.1 µM [inhibitor, single point].

**Q.** Which Potency does the source give for `COc1ccc(CN(C(=O)CN2C(=O)C(C)Oc3ccccc32)C2CCCC2)c(OC)c1` (centres undefined) here?
**A.** The Potency was inconclusive: 89.1 µM [inhibitor, single point].

**Q.** For `CCOc1ccc(NS(=O)(=O)c2ccc3[nH]cc(C(=O)NCc4ccco4)c(=O)c3c2)cc1`, which Potency is on record?
**A.** The Potency was active: 22.4 µM.

**Q.** For `CC(=O)Nc1ccc(OCC(O)Cn2nc(C)c(C(C)=O)c2C)cc1` (centres undefined), which Potency is on record?
**A.** Its Potency is inconclusive: 89.1 µM [inhibitor, single point].

**Q.** With `Cc1ccccc1/C=C1\SC(=S)N(/N=C/c2cc([N+](=O)[O-])ccc2O)C1=O` as the compound, how does the Potency read?
**A.** Its Potency is inconclusive: 89.1 µM [inhibitor, single point].
